Data from the supplement of paper PMC4371806.
The full ranking holds about 1,600 compounds; the median of “plate-normalized OD600 growth (mean of duplicates)” is about 0.31, and the lowest 2% start at about 0.23. This is one part of the list.

Tested on: Escherichia coli BW25113
Experiment: plate-normalized OD600 growth (mean of duplicates) (OD600 (normalized)); higher = more growth (less inhibition)
Conditions: 10 µM
Protocol: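 E. coli BW25113 in LB (100 µl, 96-well, no shaking) was exposed to 10 µM of each compound (here the ChemBridge subset of a ~30,000-member library) and grown at 37°C for 24 h or 15°C for 48 h, in duplicate. Growth was read as OD600 and the duplicate ODs were normalized across screening plates to correct plate-to-plate variation.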

SMILES	plate-normalized OD600 growth (temperature: 15°C, 48 h)	plate-normalized OD600 growth (temperature: 37°C, 24 h)
CCN1CCN(Cc2ccc(Br)s2)CC1	0.257	0.626
CCN1CCN(Cc2cc(Br)c(O)c(OC)c2)CC1	0.265	0.651
CN1CCCN(Cc2c[nH]c3ccccc23)CC1	0.257	0.639
CC1CN(c2ccc([N+](=O)[O-])c(N3CCOCC3)c2)CCN1 (configuration not stated)	0.258	0.618
CN1CCC(N(C)Cc2cccnc2)CC1	0.247	0.602
Nc1ccc(Oc2ccc(N)cc2)cc1	0.168	0.608
Oc1cccc(CN2CCN(c3ccc(F)cc3)CC2)c1	0.222	0.646
O=C(Cc1ccccc1)N1CCN(Cc2cccc([N+](=O)[O-])c2)CC1	0.259	0.626
CN1C(=O)N(C)C(=O)C(CCc2ccncc2)(CCc2ccncc2)C1=O	0.266	0.631
COc1cccc(CN2CCN(c3ccccc3)CC2)c1	0.252	0.608
COc1ccc(CCNC2CCCCC2)cc1	0.237	0.602
C/C=C(\C)CN(C)CCc1ccccn1	0.251	0.626
O=[N+]([O-])c1ccc(N2CCN(Cc3ccc(F)c(Br)c3)CC2)cc1	0.257	0.638
CC(=O)c1ccc(N2CCN(Cc3cccc(Cl)c3)CC2)cc1	0.239	0.643
CCN1CCN(CC(c2ccccc2)c2ccccc2)CC1	0.251	0.613
CCN1CCN(Cc2ccc(OC)c(C)c2)CC1	0.261	0.606
Clc1cccc(N2CCN(Cc3ccc4c(c3)OCO4)CC2)c1	0.275	0.647
CCC(N)C(=O)c1ccc(Br)cc1 (configuration not stated)	0.219	0.624
CCOc1ccccc1N1CCN(Cc2cccnc2)CC1	0.233	0.625
COc1ccc(CN2C(=O)CC(=O)NC2=O)cc1	0.265	0.633
CN1C(=O)C(C2(C#N)CCCCC2)C(=O)N(C)C1=O	0.264	0.635

SMILES	plate-normalized OD600 growth (temperature: 15°C, 48 h)	plate-normalized OD600 growth (temperature: 37°C, 24 h)
OC1CCN(Cc2c[nH]c3ccccc23)CC1	0.241	0.615
O=C1CC(=O)N(c2ccccc2)C(=O)N1	0.252	0.62
COc1ccc(CNCCc2cccc(Cl)c2)cc1	0.243	0.605
CCN1CCN(Cc2cccs2)CC1	0.24	0.605
OC(Cc1ccncc1)C(Cl)(Cl)Cl (configuration not stated)	0.247	0.61
Oc1cccc(CN2CCN(c3ccccc3Cl)CC2)c1	0.26	0.611
COc1ccc(C2(CN)CCCC2)cc1OC	0.258	0.615
Cc1ccc(-c2nc3ccccc3c(=O)n2-c2cccc(O)c2)cc1	0.247	0.61
c1ccc(CN2CCN(C3CCCCC3)CC2)cc1	0.26	0.617
COc1cc(Cc2ccc(N)c(OC)c2)ccc1N	0.255	0.625
c1ccc(CCNCc2ccco2)cc1	0.247	0.609
Cc1cccc(CN2C[C@@H]3C[C@@H](C2)c2cccc(=O)n2C3)c1	0.283	0.635
[O-][n+]1onc2c1CCC1N(O)CCC21O (configuration not stated)	0.285	0.651
O=c1cccc2n1C[C@H]1C[C@H]2CN(Cc2c(Cl)cccc2Cl)C1	0.284	0.625
O=C1NC(=O)C(Cc2ccc(F)cc2)C(=O)N1	0.271	0.632
COc1ccc(N2CCN(Cc3ccc(OC)c(C)c3)CC2)cc1	0.242	0.598
Cc1ccc2c(c1)c(=O)c1c3n2CCN(CC#N)C3CC1 (configuration not stated)	0.254	0.617
CCCN1CCC(NC2CCC(O)CC2)CC1 (configuration not stated)	0.247	0.598
OCCN1CCN(Cc2ccc(F)cc2F)CC1	0.26	0.618
CN(CCc1ccccc1)Cc1cccc(O)c1	0.265	0.604

Part of the list above in another layout.
O=C1NC(=O)C(Cc2ccc(F)cc2)C(=O)N1
  plate-normalized OD600 growth (temperature: 15°C, 48 h): 0.271
  plate-normalized OD600 growth (temperature: 37°C, 24 h): 0.632
COc1ccc(N2CCN(Cc3ccc(OC)c(C)c3)CC2)cc1
  plate-normalized OD600 growth (temperature: 15°C, 48 h): 0.242
  plate-normalized OD600 growth (temperature: 37°C, 24 h): 0.598
Cc1ccc2c(c1)c(=O)c1c3n2CCN(CC#N)C3CC1 (configuration not stated)
  plate-normalized OD600 growth (temperature: 15°C, 48 h): 0.254
  plate-normalized OD600 growth (temperature: 37°C, 24 h): 0.617
